Taken from: PubChem BioAssay AID1259308 (NCATS, 2017)
Assay: 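Knock-downs that increase output of a recombinant reporter protein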 (primary screen). System: human HEK293 embryonic kidney cells stably expressing firefly luciferase (HEK-CMV-Luc2-Hygro). Reagent: single siRNA against human genes, 0.8 pmol siRNA per well. Timing: 72 h. Detection: 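Reporter luminescence and viable-cell signal on separate replicate plates, given as percent of non-targeting control and median/MAD z-scores, plus per-cell luciferase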. Scale: total luciferase, z-score and total luciferase, % of control: higher = more reporter protein produced. Call rule: 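Active when the median/MAD z-score for overall luciferase is greater than 3; a gene was taken forward for validation with new siRNAs if at least two of its three siRNAs passed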. Calls: active = raised luciferase; inactive = no rise.
Shown is an unselected part of about 59,000 reagents. Over the whole deposit, about 1,510 (2.6%) are marked active. 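Calls use total luciferase alone and ignore viability, so some active siRNAs may act by altering cell number.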 Reagents against one gene are numbered here. Further read-outs or replicates are left out here.

After knock-down of OR1B1 #1 the results were total luciferase, z-score 0.695; total luciferase, % of control 95.7; inactive.
For OR1B1 #2 the deposit lists total luciferase, z-score 4.14; total luciferase, % of control 164; active.
For OR1B1 #3, the values are total luciferase, z-score 2.05; total luciferase, % of control 123; inactive.
With knock-down of PRRG4 #1 the results were total luciferase, z-score 1.03; total luciferase, % of control 102; inactive.
Knock-down of PRRG4 #2 gave: total luciferase, z-score -0.682; total luciferase, % of control 68.3; inactive.
For PRRG4 #3, the entry reads total luciferase, z-score -0.279; total luciferase, % of control 76.3; inactive.
After knock-down of ZNF680 #1, the screen gave total luciferase, z-score -0.719; total luciferase, % of control 67.6; inactive.
ZNF680 #2 showed total luciferase, z-score 1.5; total luciferase, % of control 112; inactive.
Depletion of ZNF680 #3 resulted in: total luciferase, z-score 0.275; total luciferase, % of control 87.4; inactive.
For TACC2 #1, the values are total luciferase, z-score 3.56; total luciferase, % of control 153; active.
For TACC2 #2, the entry reads total luciferase, z-score -1.23; total luciferase, % of control 57.4; inactive.
After knock-down of TACC2 #3 the results were total luciferase, z-score 3.7; total luciferase, % of control 156; active.
Depletion of GGT2P #1 gave: total luciferase, z-score 0.383; total luciferase, % of control 89.5; inactive.
Silencing of GGT2P #2 gave: total luciferase, z-score -0.567; total luciferase, % of control 70.6; inactive.
Knock-down of GGT2P #3 gave: total luciferase, z-score 0.555; total luciferase, % of control 92.9; inactive.
Knock-down of MSMB #1 gave: total luciferase, z-score -0.529; total luciferase, % of control 71.4; inactive.
MSMB #2 gave total luciferase, z-score 0.196; total luciferase, % of control 85.8; inactive.
For MSMB #3, the values are total luciferase, z-score -0.202; total luciferase, % of control 77.9; inactive.
For CNMD #1 the deposit lists total luciferase, z-score -0.248; total luciferase, % of control 76.9; inactive.
After knock-down of CNMD #2 the results were total luciferase, z-score 0.769; total luciferase, % of control 97.2; inactive.
Against CNMD #3 the deposit lists total luciferase, z-score -1.66; total luciferase, % of control 48.9; inactive.

2 successive records already listed:
CNMD #1 | total luciferase, z-score: -0.248; total luciferase, % of control: 76.9; outcome: inactive
CNMD #2 | total luciferase, z-score: 0.769; total luciferase, % of control: 97.2; outcome: inactive

Next entries:
With knock-down of PIK3C3 #1, the screen gave total luciferase, z-score 0.0807; total luciferase, % of control 83.5; inactive.
Against PIK3C3 #2, the entry reads total luciferase, z-score -1.07; total luciferase, % of control 60.6; inactive.
PIK3C3 #3 showed total luciferase, z-score -0.37; total luciferase, % of control 74.5; inactive.
IL22 #1 scored total luciferase, z-score 1.69; total luciferase, % of control 115; inactive.
With knock-down of IL22 #2, the screen gave total luciferase, z-score -0.508; total luciferase, % of control 71.8; inactive.
With knock-down of IL22 #3, the record shows total luciferase, z-score -0.314; total luciferase, % of control 75.6; inactive.
Knock-down of ERMN #1 resulted in: total luciferase, z-score -0.813; total luciferase, % of control 65.7; inactive.
For ERMN #2 the deposit lists total luciferase, z-score 0.0182; total luciferase, % of control 82.2; inactive.
For ERMN #3, the entry reads total luciferase, z-score -1.17; total luciferase, % of control 58.7; inactive.
For IVNS1ABP #1, the values are total luciferase, z-score -1.66; total luciferase, % of control 48.8; inactive.
With knock-down of IVNS1ABP #2, the record shows total luciferase, z-score -0.951; total luciferase, % of control 63; inactive.
With knock-down of IVNS1ABP #3, the screen gave total luciferase, z-score 0.249; total luciferase, % of control 86.8; inactive.
After knock-down of CACNG1 #1 the results were total luciferase, z-score 0.347; total luciferase, % of control 88.8; inactive.
Against CACNG1 #2 the deposit lists total luciferase, z-score 1.04; total luciferase, % of control 102; inactive.
Silencing of CACNG1 #3 gave: total luciferase, z-score -0.132; total luciferase, % of control 79.3; inactive.
Against FOXL3-OT1 #1 the deposit lists total luciferase, z-score -0.765; total luciferase, % of control 66.7; inactive.
FOXL3-OT1 #2 scored total luciferase, z-score 0.00118; total luciferase, % of control 81.9; inactive.
After knock-down of FOXL3-OT1 #3 the results were total luciferase, z-score -0.468; total luciferase, % of control 72.6; inactive.
Knock-down of ZNF775 #1 resulted in: total luciferase, z-score -0.292; total luciferase, % of control 76.1; inactive.
ZNF775 #2 showed total luciferase, z-score -1.42; total luciferase, % of control 53.7; inactive.
ZNF775 #3 showed total luciferase, z-score 0.335; total luciferase, % of control 88.6; inactive.
